Primary screen of a compound library

By UniProt entry, the sequences of proteins in these tests, tags left out.
UniProt E9BF75, entry or part of it: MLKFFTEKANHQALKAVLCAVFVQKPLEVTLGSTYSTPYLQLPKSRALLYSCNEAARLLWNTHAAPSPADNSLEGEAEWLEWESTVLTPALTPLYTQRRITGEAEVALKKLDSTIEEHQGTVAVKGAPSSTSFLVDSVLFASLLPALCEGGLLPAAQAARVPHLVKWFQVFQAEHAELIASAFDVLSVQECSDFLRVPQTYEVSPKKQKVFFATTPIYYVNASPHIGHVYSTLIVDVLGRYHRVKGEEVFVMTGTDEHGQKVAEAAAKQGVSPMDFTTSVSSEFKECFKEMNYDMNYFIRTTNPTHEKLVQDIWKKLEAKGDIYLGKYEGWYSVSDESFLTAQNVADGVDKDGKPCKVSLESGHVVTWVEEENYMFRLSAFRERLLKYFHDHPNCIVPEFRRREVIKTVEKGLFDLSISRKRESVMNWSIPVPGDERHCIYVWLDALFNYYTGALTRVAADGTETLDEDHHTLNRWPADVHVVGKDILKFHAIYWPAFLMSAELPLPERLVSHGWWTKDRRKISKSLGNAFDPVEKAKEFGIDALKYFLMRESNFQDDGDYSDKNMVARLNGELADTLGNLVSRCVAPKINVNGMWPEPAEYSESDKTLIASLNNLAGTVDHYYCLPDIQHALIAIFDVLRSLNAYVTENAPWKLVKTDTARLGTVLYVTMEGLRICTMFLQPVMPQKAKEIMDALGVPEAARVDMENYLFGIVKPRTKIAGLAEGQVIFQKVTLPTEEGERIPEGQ

Measurements from “University of Dundee, Small-Polar-MMV Screening Library” (2021), ChEMBL document CHEMBL3988442.

All values are in %.
How 0% and 100% were set is not recorded. Most values in the screen are low, and negative values occur.
Compounds were drawn at random from those tested, without regard to their results.
A dash means the value is not listed here; it may have been measured.

Mtb heat-shock: 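Assay on Mycobacterium tuberculosis, filed only as a heat shock assay from Cornell; the read-out is not stated. The concentration is filed as 10 mM, unlikely as a test dose, so the dose is not known. Direction is inferred from retests: higher values go with stronger inhibition. About 69,000 compounds were tested under these conditions; 1.4% (about 930) showed 50% or more at least once.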
LdMetRS: 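Methionyl-tRNA synthetase (putative), Leishmania donovani (UniProt E9BF75). Primary screen of methionyl-tRNA synthetase; the read-out is not stated. The test concentration is not given. Values are per cent inhibition. Of about 68,000 compounds tested this way, about 24 (0.035%) reached 50% or more in at least one test.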
Mtb growth Cornell: 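Whole-cell assay for inhibitors of Mycobacterium tuberculosis growth, labelled Cornell in the record; the read-out is not stated. The concentration is filed as 10 mM, unlikely as a test dose, so the dose is not known. Higher means stronger inhibition (inferred from two other growth screens of the library). Size under these conditions: about 53,000 compounds, about 900 of them at 50% or above in at least one test.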

| structure | Mtb heat-shock | LdMetRS | Mtb growth Cornell |
|---|---|---|---|
| `CN(CC1(O)CCCCC1)C1CCCN(Cc2noc(C3CC3)n2)C1` (centres undefined) | -12.54 | 6.299 | 0.7213 |
| `O=C(c1ccc(F)cc1)N1C[C@@H]2CN(c3ncccn3)C[C@@H]2C1` | - | 10.78 | - |
| `O=C(NC1CCCN(c2ccc(OC(F)F)cc2)C1)c1ccon1` (centres undefined) | 8.509 | 7.447 | -7.617 |
| `CCc1nccn1C1CCCN(C(=O)c2cn3c(C)cccc3n2)C1` (centres undefined) | -22.09 | 21.13 | 3.072 |
| `O=C(NCCCn1ccccc1=O)c1cnc(-c2ccsc2)s1` | -23.47 | 27.59 | 16.83 |
| `CCOc1ncnc2c1CCN(C(=O)NCc1cccnc1)CC2` | - | 7.534 | - |
| `Cn1c(C(N)=O)cc2c1CN(C(=O)C1CC(=O)N(C(C)(C)C)C1)CC2` (centres undefined) | 37.91 | 7.902 | 5.309 |
| `[H][C@]12CC[C@]([H])(CN(C(=O)CC(F)(F)F)C1)N(Cc1ccccc1)C2=O` | 15.91 | - | - |
| `O=C(Cc1ccc2c(c1)CCO2)N1CCCC1Cn1cccn1` (centres undefined) | -30.47 | 1.227 | 20.24 |
| `[H][C@@]12CN(C)C(=O)N1CCN(C(=O)c1ccc3c(c1)OCO3)C2` | -1.921 | - | - |
| `[H][C@@]12CCCN1C[C@H](CCSC)N(Cc1cn(CC)nc1C)C2` | 10.16 | - | - |
| `COc1ccc(CC(=O)N2CCCCC2Cn2cc(C)cn2)cc1F` (centres undefined) | -11.17 | 22.1 | - |
| `CN1CCN(C(=O)C2CC=CC2)c2ccccc21` | -13.23 | 8.696 | -19.53 |
| `CN(C)CCN1C(=O)CCC12CCCN(C(=O)C1CC=CC1)CC2.O=C(O)C(F)(F)F` (centres undefined) | -7.071 | - | 19.68 |
| `CC[C@@H]1N(Cc2nccs2)CCC[C@]12CCC(=O)N2CCOC` | - | 17.26 | - |
| `COCc1nn(Cc2ccc(Br)s2)c(=O)o1` | 22.42 | 17.96 | 6.613 |
| `Cn1ccnc1CN1CCCC(CCc2ccc(F)c(F)c2)C1` (centres undefined) | 16.27 | 12.1 | 31.11 |
| `O=C1NCCO[C@H]2CN(C(=O)c3cccs3)CC[C@@H]12` | - | 8.403 | - |
| `CCN(CC)C(CNCc1cc(F)cc(F)c1)c1ccco1` (centres undefined) | -16.53 | 3.819 | -3.379 |
| `COCCN1CCC(C)(c2cc(O)[nH]n2)CC1` | -2.336 | 14.92 | 6.433 |
| `Cc1cnn(C(C)C2CC2)c1NC(=O)c1ncccc1O` (centres undefined) | -0.2802 | -6.044 | - |
| `CC(O)c1cnn(-c2ccccc2)c1` (centres undefined) | -27.25 | -1.955 | -23.3 |
| `CN(C)[C@@H]1CCN(S(=O)(=O)C2CC2)[C@H]1Cc1ccccc1.O=C(O)C(F)(F)F` | 29.54 | - | -9.565 |
| `CN(Cc1ccc(Br)c2cccnc12)S(C)(=O)=O` | -8.9 | 4.737 | -15.77 |
| `NCC1Cc2cc(-c3nccc(N4CCC(O)CC4)n3)cc(F)c2O1` (centres undefined) | -22.99 | 46.13 | 1.085 |
| `Cc1ccc(C(=O)N2CCN(c3ccnc4ccsc34)CC2)o1` | 7.544 | 16.39 | -1.933 |
| `CC(=O)N[C@@H]1CN(C(=O)c2ccncc2)C[C@H]1c1ccc(C)cc1` | -5.326 | 12.21 | 9.511 |
| `CS(=O)(=O)Nc1cccc(CNC(=O)CCNC(=O)c2cccs2)c1` | 26.09 | 5.903 | -17.32 |
| `COc1ccc(-c2n[nH]cc2C2SCC(=O)Nc3[nH]ncc32)cc1` (centres undefined) | -2.147 | 11.27 | 4.338 |
| `O=c1[nH]c(-c2ccccn2)nc2c1CCN(Cc1cccc(O)c1)C2` | 53.42 | 5.729 | 31.65 |
| `CC(C)N1CCC(CC(=O)NC(C(=O)O)c2ccc(F)cc2)CC1` (centres undefined) | 23.24 | 9.341 | - |
| `c1csc(-c2noc(C3CCCNC3)n2)c1` (centres undefined) | - | 13.87 | - |
| `CNC(=O)CN(C(=O)c1ccccc1)[C@H]1C[C@H]2CCOC[C@H]2C1` | - | 4.054 | - |
| `Cc1cnn(CC2CCCCN2Cc2nc(N)c3ccccc3n2)c1` (centres undefined) | 92.62 | 4.225 | 31.76 |
| `COc1cc(CNc2nc(N3CCOCC3)ns2)cc(OC)c1OC` | -10.18 | 16.4 | - |
| `Br.Cc1ccc(C(=O)CN(C2=NCCCCC2)c2ccccc2)cc1` | 26.5 | - | 29.09 |
| `Cc1ccc(CCCC(=O)N2CCC(CS(N)(=O)=O)CC2)s1` | 13.9 | 24.49 | 17.07 |
| `O=C(Cc1noc(C(=O)NCCO)n1)Nc1cccc(C(F)(F)F)c1` | 11.91 | 6.636 | -2.277 |
| `COc1ccc(CNC(=O)NCCc2nc(C)c(C)s2)cn1` | -9.665 | 13.12 | -5.611 |
| `CC(O)CN1CCC(CN(C)Cc2cccc(C(=O)N(C)C)c2)CC1` (centres undefined) | -16.63 | 5.587 | - |
| `Cn1nc(CN2CCCC2)c2c1CN(C(=O)c1cccnc1)CC2` | - | 9.589 | - |
| `CC(NC(=O)CCCC(=O)c1cccs1)c1nnc2n1CCC2` (centres undefined) | -21 | 12.78 | -0.2789 |
| `CCC(CNC(=O)c1c(C)nn(C)c1OC)Oc1ccccc1` (centres undefined) | -0.9895 | -0.7792 | 13.29 |
| `CC(C)CC(C)NCCCN1CCCN(C)CC1` (centres undefined) | -5.114 | 2.332 | -3.655 |
| `[H][C@]12C[C@@H](CN(C)C)N(CC3CC3)[C@@]1([H])CCN(Cc1nccn1C)C2` | 18.65 | - | -8.25 |
| `CN(C)c1ncc(C2Nc3ccccc3C3=NCCCN32)cn1` (centres undefined) | - | 15.48 | - |
| `Cn1cc(CN2CCC3(CC(=O)N(c4ccc5c(c4)OCO5)C3)C2)cn1` (centres undefined) | - | 7.296 | - |
| `CN(CC(=O)N1CCCC1)Cc1nc2c(cnn2C)c(=O)[nH]1` | -13.58 | 3.333 | 9.638 |
| `Cc1cc(C)c(CNC(=O)N2CCCN(C(=O)C(C)C)CC2)c(C)c1` | -1.977 | 8.239 | - |
| `CC(C)(C)c1cn2nc(N3CCCC(Cn4cncn4)C3)sc2n1` (centres undefined) | -18.26 | 7.833 | 22.91 |
| `CNC(=O)COC1COC2(CCN(Cc3cccnc3OC)CC2)C1` (centres undefined) | - | 9.836 | - |
| `Cc1c(C2CCCN(C(=O)c3ccncc3)C2)n2c(nc1=O)CCC2` (centres undefined) | - | 14.58 | - |
| `c1cnnc(N2CCCC(NCc3nc(-c4cccs4)no3)C2)c1` (centres undefined) | -5.072 | 24.22 | - |
| `Cc1nccn1CCN(C)c1nc(-c2ccc(Cl)cc2)nc2c1CNC2` | 5.83 | 21.61 | -6.798 |
| `COCCN1C[C@@H](C)[C@@]2(COCCN(C(=O)c3ccncc3)C2)C1.O=C(O)C(F)(F)F.O=C(O)C(F)(F)F` | -16.13 | - | 15.28 |
| `COc1cccc(COCC(=O)N2CCCC(c3cc(C)[nH]n3)C2)c1` (centres undefined) | 7.719 | 16.99 | 13.91 |
| `CC(C)(C)c1n[nH]cc1CNCC1CCN(CC(F)(F)F)C1` (centres undefined) | - | 13.71 | - |
| `Cc1ncc(CN(C)CCO)c2cc(C(=O)c3ccc(Br)cc3)oc12.Cl` | -11.68 | - | 0.4149 |

The first 5 entries again:

structure,Mtb heat-shock,LdMetRS,Mtb growth Cornell
CN(CC1(O)CCCCC1)C1CCCN(Cc2noc(C3CC3)n2)C1 (centres undefined),-12.54,6.299,0.7213
O=C(c1ccc(F)cc1)N1C[C@@H]2CN(c3ncccn3)C[C@@H]2C1,-,10.78,-
O=C(NC1CCCN(c2ccc(OC(F)F)cc2)C1)c1ccon1 (centres undefined),8.509,7.447,-7.617
CCc1nccn1C1CCCN(C(=O)c2cn3c(C)cccc3n2)C1 (centres undefined),-22.09,21.13,3.072
O=C(NCCCn1ccccc1=O)c1cnc(-c2ccsc2)s1,-23.47,27.59,16.83